Our source for the binding values is patent publication US20110021746A1 (published 2011).

Chains of the proteins cited; added tags and fusions are not shown. Residues count along the entry.
UniProt P30530, residues 26-449: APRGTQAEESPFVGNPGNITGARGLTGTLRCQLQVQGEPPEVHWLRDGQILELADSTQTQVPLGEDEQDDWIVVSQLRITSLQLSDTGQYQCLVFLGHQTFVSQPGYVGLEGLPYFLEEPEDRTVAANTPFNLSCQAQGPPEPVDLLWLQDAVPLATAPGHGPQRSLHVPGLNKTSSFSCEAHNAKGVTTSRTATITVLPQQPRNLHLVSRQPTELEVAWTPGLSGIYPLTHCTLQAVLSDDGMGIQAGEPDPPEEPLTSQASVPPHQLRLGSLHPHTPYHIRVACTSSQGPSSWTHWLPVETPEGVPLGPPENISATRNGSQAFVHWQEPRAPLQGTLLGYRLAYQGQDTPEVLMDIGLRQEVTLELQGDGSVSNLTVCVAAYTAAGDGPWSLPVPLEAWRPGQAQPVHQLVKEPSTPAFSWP

Where a chain is given by its changes, count along the chain named. These are yes or no findings as the source states them, for the method shown. Some binding calls cover weakened binding; strength is not graded here.

The labels stand for the following.
B1: SEQ ID NO 449 (designed binder)
chain: NVSPPRRARVTDATETTITISWRTKTETITGFQVDAVPANGQTLIQRTITASVSSYTITGLQPGTDYKIYLYTLSEYEETSSPVVIDAST
B2: SEQ ID NO 436 (designed binder)
chain: NVSPPRRARVTDATETTITIRWELPAGTVNGFQVDAVPANGQTPIQRTIKGAKRGYTITGLQPGTDYKIYLYTLNDNARSTPVVIDAST
B3: SEQ ID NO 433 (designed binder)
chain: NVSPPRRARVTDATETTITIRWALPRSEFTRFQVDAVPANGQTPIQRTITSNIRGYTITGLQPGTDYKIYLYTLNDNARSSPVVIDAST
B4: SEQ ID NO 457 (designed binder)
chain: B3 chain with R26Q, E28A, T30D, S51T, N52A, G55T
B5: SEQ ID NO 447 (designed binder)
chain: B3 chain with R26Q, E28T, S51T
B6: SEQ ID NO 418 (designed binder)
chain: NVSPPRRARVTDATETTITIRWQALGFQVDAVPANGQTPIQRTIARNAPAYTITGLQPGTDYKIYLYTLNDNARSSPVVIDAST
B7: SEQ ID NO 455 (designed binder)
chain: B6 chain with Q23K, L25A, A45K, P49N, A50I
B8: SEQ ID NO 451 (designed binder)
chain: B6 chain with Q23G, A45K, N47S, A48V, P49T, A50T
B9: SEQ ID NO 444 (designed binder)
chain: B6 chain with Q23K, A24V, L25D, A45T, N47G, A48V, P49R, A50V
B10: 1637116_AXLB05 (designed binder)
chain: B6 chain with Q23K, A24V, L25D, A45H, N47A, A48V, P49N, A50V
B11: SEQ ID NO 459 (designed binder)
chain: B6 chain with Q23K, A24V, L25P, A45H, N47G, A48I, P49R, A50S
B12: SEQ ID NO 438 (designed binder)
chain: B6 chain with Q23G, A24I, L25P, A45K, N47A, A48I, P49S
B13: SEQ ID NO 421 (designed binder)
chain: B6 chain with R21T, Q23T, A24L, L25P, G26H, A45D, N47G, A48T, P49R
B14: SEQ ID NO 440 (designed binder)
chain: B6 chain with Q23K, A24V, L25P, A45T, N47G, A48V, P49R, A50G
B15: SEQ ID NO 435 (designed binder)
chain: B6 chain with A24L, L25P, A45K, N47A, P49N, A50V
B16: SEQ ID NO 426 (designed binder)
chain: B6 chain with Q23K, A24V, L25P, A45T, N47G, A48T, P49R, A50V
B17: SEQ ID NO 423 (designed binder)
chain: B6 chain with Q23R, A24G, L25P, G26R, A45D, R46A, N47G, A48T, P49R, A50G
B18: SEQ ID NO 429 (designed binder)
chain: B6 chain with Q23P, A24V, L25N, A45N, N47G, A48V, P49R, A50T
B19: SEQ ID NO 448 (designed binder)
chain: B6 chain with Q23E, L25V, A45K, A48V, P49T, A50V
B20: 1637116_AXLB02 (designed binder)
chain: B6 chain with Q23P, A24V, L25P, A45H, N47A, A48V, P49T, A50V
B21: SEQ ID NO 424 (designed binder)
chain: B6 chain with Q23A, A24I, L25P, A45T, N47G, P49R
B22: SEQ ID NO 439 (designed binder)
chain: B6 chain with Q23G, A24V, A45K, N47A, A48I, P49N, A50S
B23: SEQ ID NO 428 (designed binder)
chain: B6 chain with Q23A, L25P, A45H, N47T, A50S
B24: SEQ ID NO 419 (designed binder)
chain: B6 chain with Q23R, A24V, A45H, N47G, A48V, P49N, A50V
B25: SEQ ID NO 430 (designed binder)
chain: B6 chain with Q23G, A24V, A45N, N47S, A48V, P49R
B26: SEQ ID NO 458 (designed binder)
chain: B6 chain with Q23P, A24V, A45K, N47T, A48V, P49S, A50V
B27: SEQ ID NO 442 (designed binder)
chain: NVSPPRRARVTDATETTITISWKVAPSTVVGFQVDAVPANGQTPIQRTIKPDVRSYTITGLQPGTDYKIYLYTLNVFGGSAYSSSPVVIDAST
B28: SEQ ID NO 420 (designed binder)
chain: NVSPPRRARVTDATETTITISWRTKTETITGFQVDAVPANGQTPIQRTINSGARSYTITGLQPGTDYKIYLYTLTGYGVGQDASSPVVIDAST
B29: SEQ ID NO 443 (designed binder)
chain: B28 chain with G52S, R54H, T75N, Q81T, D82L
B30: SEQ ID NO 441 (designed binder)
chain: B28 chain with G52A, R54H, Q81A, D82V, A83G
B31: SEQ ID NO 422 (designed binder)
chain: NVSPPRRARVTDATETTITITWPLGFQVDAVPANGQTPIQRTIKRGVSSYTITGLQPGTDYKIYLYTLNDNARSSPVVIDAST
B32: SEQ ID NO 450 (designed binder)
chain: B31 chain with P23R, L24V, G25S
B33: SEQ ID NO 417 (designed binder)
chain: NVSPPRRARVTDATETTITIRWKAPQSDFQVDAVPANGQTPIQRTIKRSATIYTITGLQPGTDYKIYLYTLNDNARSSPVVIDAST
B34: SEQ ID NO 434 (designed binder)
chain: B33 chain with K23Q, A24Q, P25Y, Q26I, S27N, D28G, K47A, S49D, T51P, I52T
B35: SEQ ID NO 437 (designed binder)
chain: B33 chain with A24L, Q26E, S27G, S49N, T51S, I52T
B36: SEQ ID NO 432 (designed binder)
chain: B33 chain with K23A, A24S, P25Q, Q26I, S27N, D28G, S49T, A50I, T51H, I52V
B37: SEQ ID NO 456 (designed binder)
chain: NVSPPRRARVTDATETTITIPWTLGVEASGVITGFQVDAVPANGQTPIQRTIKPDVRSYTITGLQPGTDYKIYLYTLYGGGKTSSPVVIDAST
B38: SEQ ID NO 427 (designed binder)
chain: NVSPPRRARVTDATETTITISWKKPKHNGGTGVTSFQVDAVPANGQTPIQRTIKPDVRSYTITGLQPGTDYKIYLYTLNKRRNSSSPVVIDAST
B39: SEQ ID NO 431 (designed binder)
chain: NVSPPRRARVTDATETTITIRWSQIDRFQVDAVPANGQTPIQRTIKSDVHIYTITGLQPGTDYKIYLYTLNDNARSSPVVIDAST
B40: SEQ ID NO 445 (designed binder)
chain: B39 chain with S23G, Q24A, I25F, D26T, R27G, V49I, I51G
B41: SEQ ID NO 453 (designed binder)
chain: B39 chain with S23G, I25V, D26I, R27S, V49I, I51T
B42: SEQ ID NO 446 (designed binder)
chain: NVSPPRRARVTDATETTITISWRRSGSEVTRFQVDAVPANGQTPIQRTIARSITVYTITGLQPGTDYKIYLYTLNDNARSSPVVIDAST

For this assay, the target named is Axl (UniProt P30530). The assay can be described thus: phage display selection.
With B1, the binding result is “binds”.

Take B2: the binding result is on record as “binds”.

With B3, the binding result is “binds”.

As to B4, the binding result is on record as “binds”.

Take B5: the binding entry is reported as “binds”.

Turning to B6, the binding result is reported as “binds”.

B7: the binding entry was “binds”.

Turning to B8, the binding result is reported as “binds”.

Consider B9, for which the binding entry was “binds”.

As for B10, the binding entry was “binds”.

Regarding B11, the binding result was “binds”.

As to B12, the binding entry was “binds”.

In the case of B13, the binding result is given as “binds”.

On to B14, for which the binding entry is “binds”.

With B15, the binding entry is on record as “binds”.

B16: the binding result is given as “binds”.

Consider B17, for which the binding result was “binds”.

In the case of B18, the binding result is reported as “binds”.

For the molecule B19, the binding result is recorded as “binds”.

Regarding B20, the binding result is listed as “binds”.

For the molecule B21, the binding result was “binds”.

Take B22: the binding result is on record as “binds”.

For the molecule B23, the binding entry was “binds”.

Take B24: the binding result is reported as “binds”.

Turning to B25, the binding entry is on record as “binds”.

B26: the binding entry is given as “binds”.

For the molecule B27, the binding result is on record as “binds”.

B28: the binding result is “binds”.

Turning to B29, the binding entry is on record as “binds”.

Turning to B30, the binding entry is reported as “binds”.

For the molecule B31, the binding entry is on record as “binds”.

Regarding B32, the binding result is “binds”.

Take B33: the binding entry is “binds”.

Consider B34, for which the binding entry is reported as “binds”.

In the case of B35, the binding entry is on record as “binds”.

As to B36, the binding entry is “binds”.

On to B37, for which the binding result is on record as “binds”.

As for B38, the binding entry is recorded as “binds”.

As to B39, the binding entry is “binds”.

For B40, the binding entry is on record as “binds”.

With B41, the binding entry is “binds”.

As for B42, the binding result is recorded as “binds”.
